Laboratory results taken from PMC10372912, “Evidence for direct interaction between the oncogenic proteins E6 and E7 of high-risk human papillomavirus (HPV)” (The Journal of Biological Chemistry, 2023).
No constants are given. Whether binding was seen depends on the method and setting. Binding seen in cells or lysates may run through a third protein. Some results given as binding are weak or reduced against the parent protein; the word gives no strength.

By UniProt entry, the sequences of proteins in these tests, tags left out.
UniProt P03129: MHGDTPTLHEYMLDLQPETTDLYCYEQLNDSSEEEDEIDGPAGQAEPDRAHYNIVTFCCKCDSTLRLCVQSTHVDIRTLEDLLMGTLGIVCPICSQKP
UniProt P03126: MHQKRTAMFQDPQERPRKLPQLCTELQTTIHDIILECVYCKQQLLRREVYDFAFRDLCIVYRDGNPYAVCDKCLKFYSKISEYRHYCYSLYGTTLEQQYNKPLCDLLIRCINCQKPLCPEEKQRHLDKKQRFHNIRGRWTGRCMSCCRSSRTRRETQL

Molecular target: 3xHA-16E7 (human papillomavirus type 16) (UniProt P03129)
Test: co-IP; lysates of C33A cells coexpressing 3xHA-E7 and untagged E6, 1 μM MG-132 for 16 h before harvest; anti-HA microbeads, 2 h at 4-8 °C, five washes with lysis buffer (50 mM Hepes pH 7.5, 150 mM NaCl, 0.1% NP-40), native elution with 3xHA peptide; immunoblot

## untagged HPV16 E6 (from UniProt P03126 1-158)
  binding: binds
